Experimental data as given in the supplement of paper PMC6411743.
± gives the standard deviation of the averaged measurements. This is a selection; strong and weak results do not stand in their true shares. Small differences around the control level are noise.

Protein sequences, listed by entry. Tags and fused reporters are not part of them. Lines headed by an entry give the natural chain unless they say otherwise; changes in a name come on top.
UniProt O00232: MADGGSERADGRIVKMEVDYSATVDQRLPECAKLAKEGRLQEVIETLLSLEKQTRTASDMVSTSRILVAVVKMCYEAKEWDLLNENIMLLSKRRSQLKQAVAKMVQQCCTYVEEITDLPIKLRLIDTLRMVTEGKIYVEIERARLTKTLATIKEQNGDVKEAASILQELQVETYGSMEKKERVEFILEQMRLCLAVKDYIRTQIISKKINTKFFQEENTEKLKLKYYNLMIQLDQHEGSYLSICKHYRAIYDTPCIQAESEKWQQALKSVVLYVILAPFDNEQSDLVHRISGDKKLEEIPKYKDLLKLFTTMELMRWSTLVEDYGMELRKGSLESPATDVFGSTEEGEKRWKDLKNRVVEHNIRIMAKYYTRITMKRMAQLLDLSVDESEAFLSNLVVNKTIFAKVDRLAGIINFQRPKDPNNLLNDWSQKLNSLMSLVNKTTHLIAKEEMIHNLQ
UniProt O14966: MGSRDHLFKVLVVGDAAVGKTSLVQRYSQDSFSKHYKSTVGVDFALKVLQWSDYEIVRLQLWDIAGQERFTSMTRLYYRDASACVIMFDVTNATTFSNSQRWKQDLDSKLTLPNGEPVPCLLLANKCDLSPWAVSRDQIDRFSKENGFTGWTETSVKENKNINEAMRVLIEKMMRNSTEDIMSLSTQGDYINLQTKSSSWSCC
UniProt O43303: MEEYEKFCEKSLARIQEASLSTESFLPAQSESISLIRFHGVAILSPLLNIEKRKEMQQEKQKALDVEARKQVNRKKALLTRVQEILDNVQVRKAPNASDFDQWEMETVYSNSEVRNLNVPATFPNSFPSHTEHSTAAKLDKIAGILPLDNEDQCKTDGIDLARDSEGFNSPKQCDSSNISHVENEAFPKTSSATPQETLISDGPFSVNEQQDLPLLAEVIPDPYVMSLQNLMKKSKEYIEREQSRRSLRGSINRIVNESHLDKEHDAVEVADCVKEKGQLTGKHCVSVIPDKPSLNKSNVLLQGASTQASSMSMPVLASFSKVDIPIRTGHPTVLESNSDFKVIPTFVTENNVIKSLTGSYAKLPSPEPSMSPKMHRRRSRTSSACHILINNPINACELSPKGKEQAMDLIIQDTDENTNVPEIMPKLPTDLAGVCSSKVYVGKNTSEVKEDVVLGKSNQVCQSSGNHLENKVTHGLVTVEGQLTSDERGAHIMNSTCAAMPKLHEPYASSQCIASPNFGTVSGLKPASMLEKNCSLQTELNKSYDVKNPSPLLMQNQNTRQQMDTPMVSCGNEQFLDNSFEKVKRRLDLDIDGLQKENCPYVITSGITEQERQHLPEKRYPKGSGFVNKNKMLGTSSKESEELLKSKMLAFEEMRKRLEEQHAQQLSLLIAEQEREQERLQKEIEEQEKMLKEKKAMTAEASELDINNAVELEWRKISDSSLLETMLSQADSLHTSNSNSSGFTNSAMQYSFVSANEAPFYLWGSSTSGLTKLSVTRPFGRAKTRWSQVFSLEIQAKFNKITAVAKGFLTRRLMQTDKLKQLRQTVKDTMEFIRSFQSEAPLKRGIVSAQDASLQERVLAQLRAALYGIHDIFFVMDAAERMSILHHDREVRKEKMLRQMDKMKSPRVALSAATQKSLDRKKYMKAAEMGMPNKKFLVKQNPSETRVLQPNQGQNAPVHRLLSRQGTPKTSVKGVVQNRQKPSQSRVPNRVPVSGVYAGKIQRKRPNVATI
UniProt O43324: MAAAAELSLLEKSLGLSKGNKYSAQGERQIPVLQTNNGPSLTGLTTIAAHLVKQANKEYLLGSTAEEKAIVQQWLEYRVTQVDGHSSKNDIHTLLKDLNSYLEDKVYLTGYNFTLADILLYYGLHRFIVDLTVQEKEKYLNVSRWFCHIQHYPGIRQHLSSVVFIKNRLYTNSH
UniProt Q7Z4V5: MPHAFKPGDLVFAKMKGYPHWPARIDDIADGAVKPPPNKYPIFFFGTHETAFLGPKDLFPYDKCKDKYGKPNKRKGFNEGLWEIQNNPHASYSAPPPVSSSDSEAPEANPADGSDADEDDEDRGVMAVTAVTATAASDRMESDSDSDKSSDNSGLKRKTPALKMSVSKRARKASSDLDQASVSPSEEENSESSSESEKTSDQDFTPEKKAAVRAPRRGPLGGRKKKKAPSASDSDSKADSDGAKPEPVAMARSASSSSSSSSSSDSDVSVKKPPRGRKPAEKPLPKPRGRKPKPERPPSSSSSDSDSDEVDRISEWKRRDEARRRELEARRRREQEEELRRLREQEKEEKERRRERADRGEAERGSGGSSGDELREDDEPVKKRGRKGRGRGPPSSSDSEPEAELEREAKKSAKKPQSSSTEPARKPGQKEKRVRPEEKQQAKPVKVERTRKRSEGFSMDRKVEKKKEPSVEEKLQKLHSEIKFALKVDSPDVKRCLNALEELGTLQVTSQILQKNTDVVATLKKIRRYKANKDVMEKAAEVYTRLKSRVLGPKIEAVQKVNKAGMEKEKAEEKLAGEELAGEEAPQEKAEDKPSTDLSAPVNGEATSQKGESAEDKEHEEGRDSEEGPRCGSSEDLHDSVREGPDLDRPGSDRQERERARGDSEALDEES
UniProt O00429, whole entry: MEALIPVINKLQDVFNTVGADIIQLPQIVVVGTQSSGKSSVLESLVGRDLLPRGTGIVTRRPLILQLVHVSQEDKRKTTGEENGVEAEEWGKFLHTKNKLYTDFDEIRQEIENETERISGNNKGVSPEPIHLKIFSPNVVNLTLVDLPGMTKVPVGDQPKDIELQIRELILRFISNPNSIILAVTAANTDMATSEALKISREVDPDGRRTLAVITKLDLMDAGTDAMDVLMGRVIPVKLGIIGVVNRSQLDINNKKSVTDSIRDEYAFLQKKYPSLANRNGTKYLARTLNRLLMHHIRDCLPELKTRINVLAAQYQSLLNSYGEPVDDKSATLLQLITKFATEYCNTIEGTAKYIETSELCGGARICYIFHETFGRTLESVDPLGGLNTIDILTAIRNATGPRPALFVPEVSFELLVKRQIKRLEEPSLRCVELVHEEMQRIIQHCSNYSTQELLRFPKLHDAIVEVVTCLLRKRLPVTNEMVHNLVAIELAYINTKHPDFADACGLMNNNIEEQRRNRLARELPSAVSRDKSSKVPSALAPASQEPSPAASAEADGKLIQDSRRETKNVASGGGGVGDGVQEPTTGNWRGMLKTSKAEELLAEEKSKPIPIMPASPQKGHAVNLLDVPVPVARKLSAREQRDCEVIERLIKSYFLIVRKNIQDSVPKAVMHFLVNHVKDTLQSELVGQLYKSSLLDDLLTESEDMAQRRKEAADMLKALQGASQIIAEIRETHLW
UniProt O43242, whole entry: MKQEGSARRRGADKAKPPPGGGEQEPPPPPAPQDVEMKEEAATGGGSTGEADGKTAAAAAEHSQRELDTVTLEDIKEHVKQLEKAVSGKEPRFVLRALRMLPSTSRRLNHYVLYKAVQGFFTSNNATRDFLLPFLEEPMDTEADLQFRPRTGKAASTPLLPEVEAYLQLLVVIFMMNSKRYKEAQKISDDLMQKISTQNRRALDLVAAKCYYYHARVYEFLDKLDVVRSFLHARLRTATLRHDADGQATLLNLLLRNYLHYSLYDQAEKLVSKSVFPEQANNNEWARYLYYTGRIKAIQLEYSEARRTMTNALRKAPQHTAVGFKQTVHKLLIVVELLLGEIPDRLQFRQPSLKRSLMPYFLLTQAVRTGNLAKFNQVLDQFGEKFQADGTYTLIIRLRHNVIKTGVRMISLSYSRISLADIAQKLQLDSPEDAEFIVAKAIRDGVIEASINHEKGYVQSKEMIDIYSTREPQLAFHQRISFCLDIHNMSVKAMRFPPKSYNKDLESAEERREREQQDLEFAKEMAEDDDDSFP
UniProt O15116: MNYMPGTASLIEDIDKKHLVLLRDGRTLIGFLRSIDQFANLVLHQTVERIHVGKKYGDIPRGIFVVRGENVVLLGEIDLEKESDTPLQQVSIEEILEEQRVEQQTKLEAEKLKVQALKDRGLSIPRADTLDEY
UniProt O15355: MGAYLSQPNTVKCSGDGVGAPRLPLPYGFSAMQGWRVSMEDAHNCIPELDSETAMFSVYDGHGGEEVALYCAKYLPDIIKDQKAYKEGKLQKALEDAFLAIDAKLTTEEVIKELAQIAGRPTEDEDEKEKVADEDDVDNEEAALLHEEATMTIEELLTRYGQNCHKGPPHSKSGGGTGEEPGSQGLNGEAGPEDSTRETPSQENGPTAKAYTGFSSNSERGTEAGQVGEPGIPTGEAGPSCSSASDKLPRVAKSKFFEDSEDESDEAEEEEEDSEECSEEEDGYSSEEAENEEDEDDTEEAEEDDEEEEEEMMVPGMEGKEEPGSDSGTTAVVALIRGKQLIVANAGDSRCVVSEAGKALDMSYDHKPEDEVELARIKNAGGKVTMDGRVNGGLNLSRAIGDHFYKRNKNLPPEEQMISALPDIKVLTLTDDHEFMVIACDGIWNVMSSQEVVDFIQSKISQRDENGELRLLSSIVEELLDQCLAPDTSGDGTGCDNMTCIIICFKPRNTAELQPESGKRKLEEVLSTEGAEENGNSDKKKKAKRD
UniProt O00161: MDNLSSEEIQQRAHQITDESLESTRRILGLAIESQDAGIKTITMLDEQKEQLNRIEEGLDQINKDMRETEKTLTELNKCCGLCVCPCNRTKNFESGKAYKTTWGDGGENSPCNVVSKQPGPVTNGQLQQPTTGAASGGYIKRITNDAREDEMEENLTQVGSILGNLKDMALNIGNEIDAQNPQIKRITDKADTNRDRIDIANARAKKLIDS
UniProt Q9NX61: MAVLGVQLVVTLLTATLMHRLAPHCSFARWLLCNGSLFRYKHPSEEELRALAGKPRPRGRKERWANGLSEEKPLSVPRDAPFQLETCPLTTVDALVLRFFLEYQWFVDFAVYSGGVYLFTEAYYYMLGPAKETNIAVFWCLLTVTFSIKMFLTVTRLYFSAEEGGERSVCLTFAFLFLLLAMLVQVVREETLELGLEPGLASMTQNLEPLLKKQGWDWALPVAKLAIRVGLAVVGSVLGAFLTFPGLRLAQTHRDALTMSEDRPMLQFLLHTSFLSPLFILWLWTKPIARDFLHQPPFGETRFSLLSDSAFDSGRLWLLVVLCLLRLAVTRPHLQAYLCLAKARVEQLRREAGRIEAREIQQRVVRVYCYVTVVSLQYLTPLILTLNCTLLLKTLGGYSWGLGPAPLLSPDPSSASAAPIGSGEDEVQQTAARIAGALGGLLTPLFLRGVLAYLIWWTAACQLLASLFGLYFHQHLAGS
UniProt Q8N2G8: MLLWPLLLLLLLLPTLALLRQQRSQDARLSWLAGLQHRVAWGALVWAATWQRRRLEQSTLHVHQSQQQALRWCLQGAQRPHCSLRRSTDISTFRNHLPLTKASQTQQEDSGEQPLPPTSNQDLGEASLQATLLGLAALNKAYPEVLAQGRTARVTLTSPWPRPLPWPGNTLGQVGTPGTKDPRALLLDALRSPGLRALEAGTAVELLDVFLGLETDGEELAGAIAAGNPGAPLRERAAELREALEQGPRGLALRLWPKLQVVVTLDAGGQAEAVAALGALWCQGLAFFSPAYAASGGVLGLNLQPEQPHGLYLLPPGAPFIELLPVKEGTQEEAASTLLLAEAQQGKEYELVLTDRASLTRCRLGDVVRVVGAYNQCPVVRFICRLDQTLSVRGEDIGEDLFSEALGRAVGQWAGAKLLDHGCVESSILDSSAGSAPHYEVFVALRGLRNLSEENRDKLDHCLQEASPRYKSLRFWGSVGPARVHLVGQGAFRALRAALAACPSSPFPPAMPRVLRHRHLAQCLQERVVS
UniProt O95707: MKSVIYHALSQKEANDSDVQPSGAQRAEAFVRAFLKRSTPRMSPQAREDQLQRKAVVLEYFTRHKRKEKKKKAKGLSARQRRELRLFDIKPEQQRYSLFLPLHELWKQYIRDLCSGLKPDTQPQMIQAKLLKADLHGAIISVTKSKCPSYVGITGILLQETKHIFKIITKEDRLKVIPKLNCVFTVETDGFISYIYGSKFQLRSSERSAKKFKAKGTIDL
UniProt O00287: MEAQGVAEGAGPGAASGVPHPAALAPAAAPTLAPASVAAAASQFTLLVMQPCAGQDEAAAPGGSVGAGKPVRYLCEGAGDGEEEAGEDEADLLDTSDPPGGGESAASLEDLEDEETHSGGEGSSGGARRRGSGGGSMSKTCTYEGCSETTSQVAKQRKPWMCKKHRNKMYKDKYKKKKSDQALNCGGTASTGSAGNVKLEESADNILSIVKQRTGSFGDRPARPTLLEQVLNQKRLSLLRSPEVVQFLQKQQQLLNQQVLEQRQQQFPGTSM
UniProt O43684, whole entry: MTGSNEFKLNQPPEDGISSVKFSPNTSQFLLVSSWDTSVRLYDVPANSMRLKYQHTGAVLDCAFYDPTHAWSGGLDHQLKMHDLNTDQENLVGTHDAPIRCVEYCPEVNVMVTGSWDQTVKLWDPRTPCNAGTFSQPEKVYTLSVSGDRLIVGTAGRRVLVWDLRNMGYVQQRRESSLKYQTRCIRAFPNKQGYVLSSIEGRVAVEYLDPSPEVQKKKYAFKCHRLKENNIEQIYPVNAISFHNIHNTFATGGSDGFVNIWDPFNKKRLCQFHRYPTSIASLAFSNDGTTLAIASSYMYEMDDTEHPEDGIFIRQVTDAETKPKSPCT

Compound: Nc1ncnc2c1ncn2[C@@H]1O[C@H](COP(=O)(O)OP(=O)(O)NP(=O)(O)O)[C@@H](O)[C@H]1O [adenylyl imidodiphosphate]
Assay: NP40-soluble protein abundance relative to vehicle (solubility fold change) (ratio); higher = more soluble protein in presence of AMP-PNP
Summary of the method: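 Jurkat crude lysate (Dounce-homogenised) was treated with eight concentrations from 0.1 to 10 mM for 10 min at room temperature, then 3 min at 37 °C. It was solubilised with 0.8% NP40 and benzonase (60 min, 4 °C) and ultracentrifuged, and the supernatant was TMT-labelled for LC-MS/MS. Intensities were vsn-normalised, and the value is the fold change against the NP40-processed vehicle per replicate, from three independent experiments.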

Target	NP40-soluble protein abundance (concentration: 0.1mM)	NP40-soluble protein abundance (concentration: 0.5mM)
K7ENL9 and related entries (UniProt Q96DM3)	0.97 ± 0.032	0.968 ± 0.055
PSMD12 (UniProt O00232)	1.01 ± 0.029	0.991 ± 0.04
UniProt O14966 and related entries	0.988 ± 0.013	0.98 ± 0.026
UniProt O43303 and related entries	1.02 ± 0.014	0.994 ± 0.02
EEF1E1 (UniProt O43324)	1.03 ± 0.011	1.01 ± 0.025
K7EJP7 and related entries (UniProt Q7Z4V5)	0.988 ± 0.023	1.01 ± 0.058
DNM1L (UniProt O00429)	1.02 ± 0.012	1 ± 0.035
PSMD3 (UniProt O43242)	1.01 ± 0.017	0.985 ± 0.072
LSM1 (UniProt O15116)	0.972 ± 0.037	0.954 ± 0.034
UniProt O00716 and related entries	1 ± 0.021	0.982 ± 0.037
PPM1G (UniProt O15355)	0.976 ± 0.025	1.02 ± 0.063
K7ELC7 and related entries (UniProt P61353)	1.051 ± 0.0099	1.02 ± 0.023
SNAP23 (UniProt O00161)	0.973 ± 0.037	0.9746 ± 0.0092
K7EPA3 and related entries (UniProt Q9NX61)	0.997 ± 0.018	1.03 ± 0.019
K7ESN3 and related entries (UniProt Q8N2G8)	1 ± 0.016	0.972 ± 0.03
K7EQV2 and related entries (UniProt O95707)	1.05 ± 0.036	0.968 ± 0.063
RFXAP (UniProt O00287)	0.988 ± 0.033	1 ± 0.034
UniProt O43684 and related entries	0.995 ± 0.017	1.017 ± 0.01
UniProt O43861 and related entries	0.994 ± 0.043	1.01 ± 0.037

Some of the entries so far, bar-delimited.
Target | NP40-soluble protein abundance (concentration: 0.1mM) | NP40-soluble protein abundance (concentration: 0.5mM)
K7EJP7 and related entries (UniProt Q7Z4V5) | 0.988 ± 0.023 | 1.01 ± 0.058
PSMD3 (UniProt O43242) | 1.01 ± 0.017 | 0.985 ± 0.072
